Experimental data: PubChem BioAssay AID1224830 (NIAID, 2016)
In all, the deposit lists about 18,000 reagents; shown is an unselected part. About 2,900 of them (16%) count as active. 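Calls are made per well; low scores hint the gene aids the LPS response, high scores that it dampens it.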 Unmarked entries are inactive. Repeated entries: four replicate wells of each siRNA pool. Reagent sequences are not shown.

Purpose: 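Host factors that control LPS-induced TNF expression in human macrophages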 (primary screen)
Cells: human THP-1 monocytic leukaemia cells, TNF dual-luciferase reporter clone, PMA-differentiated to macrophage-like cells
Reagent: siRNA pool against human genes, 50 nM
Duration: LPS for 4 h, given about 3 days after siRNA transfection
Conditions: bacterial LPS (TLR4 ligand), 10 ng/ml
Detection: 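Ratio of firefly to renilla light, scaled to the plate median and expressed as a robust z-score per replicate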
Reading the numbers: TNF reporter robust z-score: higher = stronger TNF reporter response to LPS
Call rule: 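a well is active when its z-score exceeds 2.8 or falls below -1.5; control wells carry no call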

{"gene": "GPR37 (G protein-coupled receptor 37)", "TNF reporter robust z-score": -0.68}
{"gene": "GPR37 (G protein-coupled receptor 37)", "TNF reporter robust z-score": 1.38}
{"gene": "GPR37 (G protein-coupled receptor 37)", "TNF reporter robust z-score": 1.03}
{"gene": "GPR37 (G protein-coupled receptor 37)", "TNF reporter robust z-score": -0.4}
{"gene": "PPP2R1B (protein phosphatase 2 scaffold subunit Abeta)", "TNF reporter robust z-score": 0.68}
{"gene": "PPP2R1B (protein phosphatase 2 scaffold subunit Abeta)", "TNF reporter robust z-score": 2.18}
{"gene": "PPP2R1B (protein phosphatase 2 scaffold subunit Abeta)", "TNF reporter robust z-score": 1.19}
{"gene": "PPP2R1B (protein phosphatase 2 scaffold subunit Abeta)", "TNF reporter robust z-score": 1.27}
{"gene": "SLC8A3", "TNF reporter robust z-score": "2.95 (active)"}
{"gene": "SLC8A3", "TNF reporter robust z-score": 2.51}
{"gene": "SLC8A3", "TNF reporter robust z-score": 1.72}
{"gene": "SLC8A3", "TNF reporter robust z-score": 1.13}

Hits, among the entries above:
{"gene": "SLC8A3", "TNF reporter robust z-score": "2.95 (active)"}

Additional entries follow.
{"gene": "CNP (2',3'-cyclic nucleotide 3' phosphodiesterase)", "TNF reporter robust z-score": -0.95}
{"gene": "CNP (2',3'-cyclic nucleotide 3' phosphodiesterase)", "TNF reporter robust z-score": 0.13}
{"gene": "CNP (2',3'-cyclic nucleotide 3' phosphodiesterase)", "TNF reporter robust z-score": -0.48}
{"gene": "CNP (2',3'-cyclic nucleotide 3' phosphodiesterase)", "TNF reporter robust z-score": -0.82}
{"gene": "KLHL10 (kelch like family member 10)", "TNF reporter robust z-score": -0.43}
{"gene": "KLHL10 (kelch like family member 10)", "TNF reporter robust z-score": -0.14}
{"gene": "KLHL10 (kelch like family member 10)", "TNF reporter robust z-score": -1.02}
{"gene": "KLHL10 (kelch like family member 10)", "TNF reporter robust z-score": -0.7}
